Laboratory results taken from the supplement of paper PMC10338343.
± gives the standard deviation. The entries are a selection whose mix differs from that of the whole data set. The uncertainty is large for many entries.

Tested on: MIWI (PIWIL1) piRISC loaded with L1MC piRNA (30 nt)
Test: pre-steady-state target cleavage rate (min^-1); MIWI and MILI are mouse PIWI proteins and EfPiwi is from a freshwater sponge; tags in brackets are library labels; higher = faster piRNA-guided slicing of the target
Settings: guide: L1MC piRNA 5'p-UAACUAAAUACUAUGCAAGCUGUAGGUCCU
Method in brief: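 Three pooled Cleave-'n-Seq trials supplied the data, with k3 capped at 0.0001 min^-1. In each, […] transcribed, DNA-blocked target RNA library and 1 nM active affinity-purified piRISC with one synthetic guide reacted in HEPES–potassium acetate buffer at 33 °C for 0–8 or 0–960 min, with or without 500 nM GTSF1 partner protein. Uncleaved targets were sequenced and normalised to depth and to weakly complementary targets. A burst-and-steady-state fit provided the pre-steady-state cleavage rate.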

[1] = auxiliary factor: none (no GTSF1)
[2] = auxiliary factor: 500 nM mouse GTSF1
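Further: 1 nM active piRISC with 0.1 nM target library at 33 °C single turnover.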

Row | Sequence | pre-steady-state target cleavage rate [1] | pre-steady-state target cleavage rate [2]
1 | UCCUGGAUGUCGAACGAUAGUAUUUAGUAA | 0.000133 ± 0.036 | –
2 | UCCUCCUACAGCUUGCUAUGUAUUUAGUAA | 0.00151 ± 0.0032 | –
3 | UGGACCUACAGCUUGCAUAGUUAAUAGUAA | 0.00266 ± 0.003 | –
4 | UGGACCUACAGCUUGCAUAGUAAUUAGAAA | 0.00241 ± 0.0035 | –
5 | UCCUGGAUGUCGAACGAUAGUUUUAAGUUA | 0.000109 ± 0.056 | –
6 | UCCACCUACAGCUUGCAAUGUAUUUACAAA | 0.000873 ± 0.0086 | –
7 | UCCACCUACAGCUUGCAUAGUAUUAUGUAA | 0.00151 ± 0.0039 | –
8 | UCCACCUACUCCUUGCAUAGUAUUUACAAA | 0.002 ± 0.0026 | –
9 | UCCACCUACAGCUUGCAUAGUAUUUUCUAA | 0.00306 ± 0.0034 | –
10 | UCCACCUACACGAUGCAUAGUAUUUAGAAA | 0.00106 ± 0.0074 | –
11 | UCCACCUACAGCUUCCAUUGUAUUUAGUUA | 0.00204 ± 0.0027 | –
12 | UCCUCCUACAGCUUGCAUUCAAUUUAGUUA | 0.00141 ± 0.0051 | –
13 | UCCACCUACAGCUUCCAUAGUUUUUAGUUA | 0.00124 ± 0.0037 | –
14 | UCCACCUACAGCUUGCAUUGUAUUUAGAAA | 0.00181 ± 0.0023 | –
15 | UGGACCUACAGCUUGCAUAGUUAAAUCAAA [g10:g29:cont:t1A] | 0.00047 ± 0.0089 | –
16 | UCCUGGAUGUCCUUGCAUAGUUUUUAGUAA | 0.00187 ± 0.0036 | –
17 | AGGACCUACAGCUUCCAUAGUAUUUAGAAA | 0.0013 ± 0.0065 | –
18 | UCCACCUACAGCAACCAUAGUAUUUACAAA | 0.000259 ± 0.014 | –
19 | UCCUGGAUGUCGUUGCAUAGAAUUUACUUA | 0.000162 ± 0.016 | –
20 | AGGACCUACAGCUUGGUAAGUAUUUAGAAA | 0.000263 ± 0.013 | –
21 | UGGACCUACAGCUUUGCAUAGUAUUUAGUUA | – | 1.43 ± 0.11
22 | AGCACCUACAGCUUCCAUAGUAUUUAGUUA | 0.0012 ± 0.0048 | –
23 | AGGACCUACAGCUUGCAUAGUAUAUACAAA | 0.00196 ± 0.0051 | –
24 | AGGACCUACAGCUUCCAUAGAAUUUAGUUA | 0.00144 ± 0.0032 | –
25 | UCCACCUACACGUUGCAUAGUAUUUUCAAA | 0.00069 ± 0.0077 | –

Row | Sequence | pre-steady-state target cleavage rate [1] | pre-steady-state target cleavage rate [2]
26 | UCCUGGAUGUCGAACGUAACUAUUUAGAUA | 0.000251 ± 0.027 | –
27 | UGGACCUACAGCUACGAUAGUAUUUUCAAA | 0.000158 ± 0.017 | –
28 | UCCUGGAUGUCGAAGCUUAGAAUUUAGUUA | 0.000521 ± 0.014 | –
29 | UCCACCUACAGCUUGUCAUAGUAUUUAGUUA | 0.0017 ± 0.0034 | –
30 | UCCACCUACAGGUUGCAUAGUAUUUAGAAA | 0.0022 ± 0.0024 | –
31 | AGGACCUACAGCAUGCAUAGUAUUUUCAAA | 0.00245 ± 0.0041 | –
32 | AGGACCUACAGCUUCGUUAGUAUUUAGUUA | 0.00188 ± 0.0032 | –
33 | UCGACCUACAGGUUCCAUAGUAUUUAGUUA | 0.00117 ± 0.0037 | –
34 | AGGACCAACAGCAUGCAUAGUAUUUAGUUA | – | 1.39 ± 0.048
35 | UCGACCUACACGUUGCAUAGUAUUUACAAA | 0.00149 ± 0.004 | –
36 | AGGACCUACAGCUACCAUAGUAUUUACAAA | 0.000424 ± 0.013 | –
37 | UCGACCAUGAGCUUGCAUAGUAUUUUCAAA | 0.00165 ± 0.0029 | –
38 | UCCUGGAUGUCGAAGCAUAGUAUGUUAGUUA | 0.00117 ± 0.0058 | –
39 | UCCUGGAUGUCGAACCAUAGUAGUUAGUUA | 0.000152 ± 0.031 | –
40 | UCCACCUAGUGCUUGCAUAGUAUUUAGAAA | 0.00172 ± 0.0019 | –
41 | UCCUGGAUGUCGAACCAUAGUAUUUACAAA [g5:g15:cont:t1A] | 0.00018 ± 0.015 | –
42 | UCCUGGAACAGCUUGGUAAGUAUUUAGUUA | 0.00172 ± 0.0048 | –
43 | UCCUGGAUGUCGAACCAUAGUUUUAAGUUA | – | 0.000481 ± 0.015
44 | UCCUGGAUGUCGAACGUAACAAUUUAGUUA | 0.000129 ± 0.035 | –
45 | UCCACCUACAGCUUGCAUCAGUAUUUAGUUA | 0.000907 ± 0.008 | –
46 | UCGACCUACAGCAAGCAUAGUAUUUAGAAA | 0.00128 ± 0.0046 | –
47 | UCGACCUACAGCUUGCAUAGUAUAAAGUAA | 0.00301 ± 0.0032 | –
48 | UGGACCUACAGCUUCGUUAGUAUUUAGAAA | 0.000258 ± 0.012 | –
49 | UGGUGCUACAGCUUGCAUAGUAUUUUCAAA | 0.00193 ± 0.004 | –

Whole records, quoted from the list. Values in the order: pre-steady-state target cleavage rate [1]	pre-steady-state target cleavage rate [2]
AGGACCUACAGCUACCAUAGUAUUUACAAA is listed as 0.000424 ± 0.013	–
AGGACCUACAGCUUCGUUAGUAUUUAGUUA is listed as 0.00188 ± 0.0032	–
UGGACCUACAGCUACGAUAGUAUUUUCAAA is listed as 0.000158 ± 0.017	–
